Results are given in words; binding and its absence hold for the method and conditions named. In cells and extracts the contact can be indirect. Binding calls can cover weak binding; strength is not graded here.
Biological target: casein kinase 1a (CK1a) (Neurospora crassa (endogenous in Neurospora))
Assay: co-IP; immunoprecipitation with an antibody against CK1a from strain extracts, 25 °C; preimmune serum as control

binding: binds
B1: small FRQ (s-FRQ), FREQUENCY protein isoform lacking the N-terminal 99 aa (protein, UniProt P19970 100-989)
chain: MEVDPPFYQKETDSSNEESRYPPGRNPVHPPGGVQLPGFRPVAAHSSAADDYRSVIDDLTVENKRLKEELKRYKQFGSDVMRKEKLFEIKVHGLPRRKKRELEATLRDFAASLGDSSESTSQRRKTGRHGTAVHSSGVSLSKHDSSSSSRSRPVDSAYNSMSTGRSSHAPHSSGPSLGRPSLTRAKSVGTQKVENYLRDTPDGLLPHHIVMTDKEKKKLVVRRLEQLFTGKISGRNMQRNQSMPSMDAPLAPEGTNMAPPRPPPEGLREACIQLQDGDNPRKNRSSKDNGSASNSGGDQTELGGTGTGSGDGSGSGGRTGNNTSPPGAIAPDQRPTRPRDLDPDRVQIPSENMDYIRHLGLVSPEFLQGSRTSYQDVAPDAEGWVYLNLLCNLAQLHMVNVTPSFIRQAVSEKSTKFQLSADGRKIRWRGGTDGTKFSSDSSEDKSQQSPMTEDTEDGSDKNGRRKKRKTQQASSEIGRFGPSRSPSDTFHYKPMFVHRNSSSIETSLEESMSQGSEDAVDESNMGNSKWDFSGSGTTQQRRKRRYDGAIVYYTGAPFCTDLSGDPGDMSPTAQMTAGREVEGSGSGDEVEHVLQRTLSGSSLPIRPLSDDRARVAEVLDFDPGNPPELVADDGSSPNDEDFVFPWCEDPAKVRIQPIAKEVMEPSGLGGVLPDDHFVMLVTTRRVVRPILQRQLSRSTTSEDTAEFIAERLAAIRTSSPLPPRSHRLTVAPLQVEYVSGQFRRLNPAPLPPPAIFYPPFSTDSSWDDGDDLASDDEEVEEVEEDSYSEGQISRRANPHFSDNNTYMRKDDLAFDTETDVRMDSDDNRLSDSGHNMRAMMPRAEAVDGDDSPLAAVTGKEVDMLHTGSSVATAGGAESGYSSSMEDVSSS

Source: publication PMC10140173
